{"source": "PubChem BioAssay AID743121 (NCATS, 2013)", "aim": "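Partners whose loss is lethal together with topoisomerase I blockade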 (primary screen)", "cells": "MDA-MB-231 cells, a human breast cancer line", "reagent": "single siRNA against human genes, 20 nM siRNA (0.8 pmol per well)", "time to read-out": "120 h (drug added 48 h after transfection, read 72 h later)", "challenge": "camptothecin 20 nM (about EC30) for 72 h; vehicle 0.1% DMSO in parallel plates", "read-out": "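CellTiter-Glo ATP signal, scaled to control siRNA as percent viability; sensitisation given as log2 of untreated divided by camptothecin-treated viability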", "direction": "log2 vehicle/camptothecin viability: higher = stronger sensitisation to camptothecin; viability with camptothecin: higher = more viable cells", "active means": "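Each gene scored by redundant siRNA activity (RSA) over its individual siRNA ratios; a gene is called active at p < 0.001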", "note": "Shown is a random part of about 26,000 deposited reagents. 167 of them (0.63%) count as active. 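Calls are per gene from RSA p-values that are not deposited; an individual active-marked siRNA can sensitise only weakly.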 Unmarked entries are inactive. Reagents against one gene are numbered here. Further read-outs or replicates are left out here."}
{"gene knocked down": "UBQLN4", "siRNA no.": 1, "log2 vehicle/camptothecin viability": -0.431, "viability with camptothecin (% of control)": 57}
{"gene knocked down": "UBQLN4", "siRNA no.": 2, "log2 vehicle/camptothecin viability": 0.92, "viability with camptothecin (% of control)": 29.4}
{"gene knocked down": "UBQLN4", "siRNA no.": 3, "log2 vehicle/camptothecin viability": -0.622, "viability with camptothecin (% of control)": 94.4}
{"gene knocked down": "UBQLN4", "siRNA no.": 4, "log2 vehicle/camptothecin viability": -0.182, "viability with camptothecin (% of control)": 88}
{"gene knocked down": "ZNRF1", "siRNA no.": 1, "log2 vehicle/camptothecin viability": 0.0351, "viability with camptothecin (% of control)": 58.1}
{"gene knocked down": "ZNRF1", "siRNA no.": 2, "log2 vehicle/camptothecin viability": 0.482, "viability with camptothecin (% of control)": 24}
{"gene knocked down": "ZNRF1", "siRNA no.": 3, "log2 vehicle/camptothecin viability": 0.0827, "viability with camptothecin (% of control)": 17.9}
{"gene knocked down": "ZNRF1", "siRNA no.": 4, "log2 vehicle/camptothecin viability": -0.697, "viability with camptothecin (% of control)": 36.4}
{"gene knocked down": "SRPK2", "siRNA no.": 1, "log2 vehicle/camptothecin viability": -0.383, "viability with camptothecin (% of control)": 75.2}
{"gene knocked down": "SRPK2", "siRNA no.": 2, "log2 vehicle/camptothecin viability": -0.149, "viability with camptothecin (% of control)": 89.7}
{"gene knocked down": "SRPK2", "siRNA no.": 3, "log2 vehicle/camptothecin viability": 0.073, "viability with camptothecin (% of control)": 79.7}
{"gene knocked down": "SRPK2", "siRNA no.": 4, "log2 vehicle/camptothecin viability": 0.103, "viability with camptothecin (% of control)": 55.8}
{"gene knocked down": "NR5A2", "siRNA no.": 1, "log2 vehicle/camptothecin viability": -0.0547, "viability with camptothecin (% of control)": 81.3}
{"gene knocked down": "NR5A2", "siRNA no.": 2, "log2 vehicle/camptothecin viability": -0.134, "viability with camptothecin (% of control)": 71.9}
{"gene knocked down": "NR5A2", "siRNA no.": 3, "log2 vehicle/camptothecin viability": -0.0737, "viability with camptothecin (% of control)": 102}
{"gene knocked down": "NR5A2", "siRNA no.": 4, "log2 vehicle/camptothecin viability": -0.15, "viability with camptothecin (% of control)": 36.8}
{"gene knocked down": "REG3A", "siRNA no.": 1, "log2 vehicle/camptothecin viability": -0.388, "viability with camptothecin (% of control)": 98.6}
{"gene knocked down": "REG3A", "siRNA no.": 2, "log2 vehicle/camptothecin viability": -0.0533, "viability with camptothecin (% of control)": 66}
{"gene knocked down": "REG3A", "siRNA no.": 3, "log2 vehicle/camptothecin viability": 0.233, "viability with camptothecin (% of control)": 43.8}
{"gene knocked down": "REG3A", "siRNA no.": 4, "log2 vehicle/camptothecin viability": -0.11, "viability with camptothecin (% of control)": 106}
{"gene knocked down": "RNF25", "siRNA no.": 1, "log2 vehicle/camptothecin viability": -0.279, "viability with camptothecin (% of control)": 51}
{"gene knocked down": "RNF25", "siRNA no.": 2, "log2 vehicle/camptothecin viability": -0.235, "viability with camptothecin (% of control)": 50.9}
{"gene knocked down": "RNF25", "siRNA no.": 3, "log2 vehicle/camptothecin viability": 0.746, "viability with camptothecin (% of control)": 36.8}
{"gene knocked down": "RNF25", "siRNA no.": 4, "log2 vehicle/camptothecin viability": -0.11, "viability with camptothecin (% of control)": 98.2}
